From patent publication US20220306688A1 come the findings set out here.

These are yes or no findings as the source states them, for the method shown. Some entries that bind do so weakly or less than the wild type.

The target in experiment [1] is KRAS-G12V (Homo sapiens) (UniProt P01116). The experiment is described as follows: truncation mapping; assay not given.
Experiment [2] has the same target. Put plainly: GST-affinity pull-down (FIG. 2A, right panel).
Experiment [3] has the same target. Put plainly: truncation studies, TR-FRET and GST pull-down competition. (In TR-FRET formats the signal depends on donor and acceptor labels being close together.)

With MDYKDDEGTSEEKKIK [T4a 603-618], the binding result with KRAS-G12V (Homo sapiens) [1] is recorded as “binds”. The same measure, in the same setting: the value for MDYKDDEGTSEEKKIKVILKVLDPS [T4 603-627] was “binds”. With MDYKDDEG [RasKi: 8-mer 603-610], the binding entry in the experiment with KRAS-G12V (Homo sapiens) [2], in the experiment with KRAS-G12V (Homo sapiens) [3] and in the experiment with KRAS-G12V (Homo sapiens) [1] was “binds” throughout.
